Laboratory results published in article PMC9016070.
Results are given in words; binding and its absence hold for the method and conditions named. Binding seen in cells or lysates may run through a third protein. These calls come from enrichment with a bait or labelling near it, and not all partners need be listed. Sequences can lack the tags named with a protein.

Target: T1, FLAG-tagged GBP2 (guanylate-binding protein 2) (UniProt P32456)
T1 sequence: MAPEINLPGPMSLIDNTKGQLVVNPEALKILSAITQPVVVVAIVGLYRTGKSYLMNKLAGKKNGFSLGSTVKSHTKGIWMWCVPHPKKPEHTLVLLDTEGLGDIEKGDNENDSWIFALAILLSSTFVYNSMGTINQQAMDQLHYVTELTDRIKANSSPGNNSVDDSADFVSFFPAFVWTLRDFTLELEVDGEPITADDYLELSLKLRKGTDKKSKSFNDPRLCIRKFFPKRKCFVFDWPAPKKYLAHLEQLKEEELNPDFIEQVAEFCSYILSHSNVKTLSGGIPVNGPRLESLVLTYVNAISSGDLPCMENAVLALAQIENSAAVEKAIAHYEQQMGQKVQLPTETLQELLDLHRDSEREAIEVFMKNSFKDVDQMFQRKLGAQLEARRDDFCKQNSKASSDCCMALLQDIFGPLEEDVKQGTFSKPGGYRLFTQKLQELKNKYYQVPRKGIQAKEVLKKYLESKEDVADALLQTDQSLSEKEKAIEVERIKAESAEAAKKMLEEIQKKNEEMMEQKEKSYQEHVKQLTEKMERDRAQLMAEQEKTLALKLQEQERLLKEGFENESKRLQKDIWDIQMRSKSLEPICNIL
Assay: affinity purification with mass spectrometry; anti-FLAG immunoprecipitation from 1 mg whole-cell extract of 293T cells overexpressing FLAG-GBP2, low-salt lysis buffer, 2 h at 4 °C, three washes; SDS-PAGE bands digested with trypsin, LC-MS/MS; compared with an IgG group

binding: binds
B1: kinesin family member 22 (KIF22) (protein, UniProt Q14807 1-665)
chain: MAAGGSTQQRRREMAAASAAAISGAGRCRLSKIGATRRPPPARVRVAVRLRPFVDGTAGASDPPCVRGMDSCSLEIANWRNHQETLKYQFDAFYGERSTQQDIYAGSVQPILRHLLEGQNASVLAYGPTGAGKTHTMLGSPEQPGVIPRALMDLLQLTREEGAEGRPWALSVTMSYLEIYQEKVLDLLDPASGDLVIREDCRGNILIPGLSQKPISSFADFERHFLPASRNRTVGATRLNQRSSRSHAVLLVKVDQRERLAPFRQREGKLYLIDLAGSEDNRRTGNKGLRLKESGAINTSLFVLGKVVDALNQGLPRVPYRDSKLTRLLQDSLGGSAHSILIANIAPERRFYLDTVSALNFAARSKEVINRPFTNESLQPHALGPVKLSQKELLGPPEAKRARGPEEEEIGSPEPMAAPASASQKLSPLQKLSSMDPAMLERLLSLDRLLASQGSQGAPLLSTPKRERMVLMKTVEEKDLEIERLKTKQKELEAKMLAQKAEEKENHCPTMLRPLSHRTVTGAKPLKKAVVMPLQLIQEQAASPNAEIHILKNKGRKRKLESLDALEPEEKAEDCWELQISPELLAHGRQKILDLLNEGSARDLRSLQRIGPKKAQLIVGWRELHGPFSQVEDLERVEGITGKQMESFLKANILGLAAGQRCGAS
